From publication PMC2235829
Results are given in words; binding and its absence hold for the method and conditions named. Some results given as binding are weak or reduced against the parent protein; the word gives no strength.

Sequences of proteins named here, by UniProt entry; tags and fusion partners are left off. A change or cut given only in a name is not applied to a line headed by its entry. Residues count along the entry.
UniProt P11276, residues 33-2477: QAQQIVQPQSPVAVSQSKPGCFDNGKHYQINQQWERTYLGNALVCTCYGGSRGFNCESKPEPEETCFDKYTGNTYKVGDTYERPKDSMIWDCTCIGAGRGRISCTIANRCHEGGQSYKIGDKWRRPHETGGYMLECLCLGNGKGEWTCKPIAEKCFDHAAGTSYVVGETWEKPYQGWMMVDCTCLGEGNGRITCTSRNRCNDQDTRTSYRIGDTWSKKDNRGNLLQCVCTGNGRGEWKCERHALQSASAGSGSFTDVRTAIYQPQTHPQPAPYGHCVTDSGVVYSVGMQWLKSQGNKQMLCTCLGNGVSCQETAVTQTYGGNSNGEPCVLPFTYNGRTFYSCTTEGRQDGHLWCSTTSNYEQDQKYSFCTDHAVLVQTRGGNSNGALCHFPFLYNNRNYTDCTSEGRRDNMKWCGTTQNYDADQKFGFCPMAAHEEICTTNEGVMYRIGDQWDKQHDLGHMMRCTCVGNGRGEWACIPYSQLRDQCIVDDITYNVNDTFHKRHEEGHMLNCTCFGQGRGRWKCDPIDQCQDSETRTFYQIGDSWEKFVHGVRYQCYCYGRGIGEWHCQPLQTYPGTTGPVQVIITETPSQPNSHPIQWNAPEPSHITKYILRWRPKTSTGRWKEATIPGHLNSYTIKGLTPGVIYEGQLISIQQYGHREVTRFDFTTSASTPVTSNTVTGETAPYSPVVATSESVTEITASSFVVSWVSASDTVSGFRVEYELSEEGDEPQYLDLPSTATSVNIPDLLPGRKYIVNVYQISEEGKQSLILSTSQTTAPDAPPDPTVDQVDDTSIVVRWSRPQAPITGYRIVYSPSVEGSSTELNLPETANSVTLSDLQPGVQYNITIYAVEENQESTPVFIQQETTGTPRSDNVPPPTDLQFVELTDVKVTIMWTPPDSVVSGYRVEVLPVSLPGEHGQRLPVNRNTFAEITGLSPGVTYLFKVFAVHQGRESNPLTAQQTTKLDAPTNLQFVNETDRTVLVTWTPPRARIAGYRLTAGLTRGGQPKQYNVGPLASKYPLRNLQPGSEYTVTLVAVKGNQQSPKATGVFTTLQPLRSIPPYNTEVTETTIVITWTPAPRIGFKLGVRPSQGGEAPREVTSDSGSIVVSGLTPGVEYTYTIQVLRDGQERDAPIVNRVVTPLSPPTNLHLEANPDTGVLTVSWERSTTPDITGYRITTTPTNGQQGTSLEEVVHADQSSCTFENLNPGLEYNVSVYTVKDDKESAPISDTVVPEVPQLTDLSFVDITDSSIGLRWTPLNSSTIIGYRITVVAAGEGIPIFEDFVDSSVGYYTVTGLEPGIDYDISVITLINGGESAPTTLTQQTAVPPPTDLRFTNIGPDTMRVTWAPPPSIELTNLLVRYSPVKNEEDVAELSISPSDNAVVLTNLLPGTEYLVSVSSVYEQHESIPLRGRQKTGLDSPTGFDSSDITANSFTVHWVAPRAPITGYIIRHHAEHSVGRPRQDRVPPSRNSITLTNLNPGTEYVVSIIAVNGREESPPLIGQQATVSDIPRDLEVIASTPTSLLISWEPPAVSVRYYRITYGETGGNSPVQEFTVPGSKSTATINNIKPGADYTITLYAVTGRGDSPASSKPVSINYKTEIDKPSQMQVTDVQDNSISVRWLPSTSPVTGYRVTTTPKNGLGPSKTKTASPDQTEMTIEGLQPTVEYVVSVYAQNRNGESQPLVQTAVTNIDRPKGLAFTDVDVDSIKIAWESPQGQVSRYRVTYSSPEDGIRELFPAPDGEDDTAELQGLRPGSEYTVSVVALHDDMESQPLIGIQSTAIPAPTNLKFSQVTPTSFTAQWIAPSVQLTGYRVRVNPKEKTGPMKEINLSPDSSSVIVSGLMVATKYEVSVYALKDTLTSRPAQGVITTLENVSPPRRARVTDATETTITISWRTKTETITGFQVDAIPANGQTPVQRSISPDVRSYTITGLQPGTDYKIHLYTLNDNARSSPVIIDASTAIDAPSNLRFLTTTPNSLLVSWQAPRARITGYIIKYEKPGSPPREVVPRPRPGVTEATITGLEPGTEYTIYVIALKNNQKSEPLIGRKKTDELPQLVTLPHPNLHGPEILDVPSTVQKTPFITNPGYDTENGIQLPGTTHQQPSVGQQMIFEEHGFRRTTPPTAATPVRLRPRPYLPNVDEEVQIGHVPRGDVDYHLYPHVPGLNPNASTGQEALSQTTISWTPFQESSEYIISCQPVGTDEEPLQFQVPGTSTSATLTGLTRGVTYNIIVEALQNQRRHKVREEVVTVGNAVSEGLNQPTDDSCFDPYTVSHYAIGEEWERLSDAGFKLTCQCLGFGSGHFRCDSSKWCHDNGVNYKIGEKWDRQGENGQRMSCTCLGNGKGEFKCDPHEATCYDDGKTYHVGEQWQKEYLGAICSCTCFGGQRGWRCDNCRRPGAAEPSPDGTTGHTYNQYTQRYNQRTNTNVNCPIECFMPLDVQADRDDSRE
UniProt P11688: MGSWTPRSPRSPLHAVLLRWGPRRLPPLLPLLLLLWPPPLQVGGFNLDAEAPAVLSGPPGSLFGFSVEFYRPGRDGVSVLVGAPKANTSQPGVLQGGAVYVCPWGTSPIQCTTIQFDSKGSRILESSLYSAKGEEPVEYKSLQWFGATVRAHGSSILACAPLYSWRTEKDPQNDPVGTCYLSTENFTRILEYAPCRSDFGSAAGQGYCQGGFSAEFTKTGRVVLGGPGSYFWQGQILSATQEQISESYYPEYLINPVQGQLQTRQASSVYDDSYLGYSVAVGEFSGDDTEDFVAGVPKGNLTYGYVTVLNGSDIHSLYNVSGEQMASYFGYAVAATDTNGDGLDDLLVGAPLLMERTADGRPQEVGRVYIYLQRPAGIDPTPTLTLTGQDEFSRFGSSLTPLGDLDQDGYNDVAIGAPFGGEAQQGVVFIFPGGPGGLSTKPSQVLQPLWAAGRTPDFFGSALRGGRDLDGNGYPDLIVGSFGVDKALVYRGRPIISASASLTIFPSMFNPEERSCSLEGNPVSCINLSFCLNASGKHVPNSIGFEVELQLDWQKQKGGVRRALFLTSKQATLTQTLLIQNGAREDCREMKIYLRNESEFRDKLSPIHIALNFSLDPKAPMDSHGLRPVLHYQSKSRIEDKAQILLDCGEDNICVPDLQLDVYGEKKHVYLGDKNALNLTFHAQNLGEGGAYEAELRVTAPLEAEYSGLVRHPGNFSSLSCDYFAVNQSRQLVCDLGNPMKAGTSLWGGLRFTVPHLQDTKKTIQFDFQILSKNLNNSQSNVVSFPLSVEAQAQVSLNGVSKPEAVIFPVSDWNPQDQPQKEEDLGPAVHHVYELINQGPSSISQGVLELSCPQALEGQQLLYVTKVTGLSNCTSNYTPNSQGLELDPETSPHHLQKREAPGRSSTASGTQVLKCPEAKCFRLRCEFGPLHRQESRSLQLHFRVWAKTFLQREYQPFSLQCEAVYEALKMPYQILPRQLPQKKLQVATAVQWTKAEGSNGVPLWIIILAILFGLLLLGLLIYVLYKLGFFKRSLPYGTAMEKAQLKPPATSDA

Target: cellular mouse fibronectin (mouse) (UniProt P11276)
Test: ELISA; cellular mouse fibronectin (250 ng) coated on the plate overnight at 4°C; α5β1-Fc in solution with various concentrations of antibodies, 1 hr at room temperature; detected with goat anti-human IgG Fc-HRP; both purified

binding: binds
Substance: mouse integrin α5β1-Fc fusion protein (from UniProt P11688 45-999; P09055 21-728)
